Test: Time-dependent and concentration-dependent fluorescence sensing of H2S in PBS buffer
Conditions: AL1 40 μM
Description: FIG. 3. (A) Time-dependent fluorescence emission (λex: 330 nm) of AL1 (20 μM) in the presence of Na2S (50 μM). (B) Fluorescence intensity (λex: 330 nm) of AL1 ([…]) in response to increasing Na2S concentrations.
The efficiency of AL1 in sensing H2S in PBS buffer (pH 7.4) and at room temperature was also assessed (FIG. 3A). Under these conditions, the resulting fluorescence intensity reached a maximum in less than two minutes, highlighting that our designed probe is not only selective but also highly reactive towards H2S—a necessary feature for detecting analytes which are short-lived. To determine if AL1 could also be used to detect H2S quantitatively in buffer, the resulting fluorescence was measured in response to a series of different concentrations of H2S (FIG. 3B). Indeed, the ensuing fluorescence intensity increased in a linear fashion in the range of 0-20 μM H2S and with a detection limit of 0.05 μM.

With `CC(=O)NCCS[Se]CC(C)(C)C(=O)Oc1ccc2ccc(=O)oc2c1` [AL1] the “detection limit for H2S” value was 0.05 µM and the “range of H2S in which fluorescence intensity increased in a linear fashion” value (increasing Na2S concentrations) was 0 to 20 µM.

— patent US11931428B2, “Selective hydrogen sulfide probe and uses thereof” (Wake Forest University Health Sciences, priority 2019, dated 2024)
